Source: article PMC11439715
No constants are given. Whether binding was seen depends on the method and setting. Binding seen in cells or lysates may run through a third protein. Some entries that bind do so weakly or less than the wild type.

The chains behind the UniProt entries cited, without tags or fusion partners. Residues count along the entry.
UniProt P05067, residues 18-770: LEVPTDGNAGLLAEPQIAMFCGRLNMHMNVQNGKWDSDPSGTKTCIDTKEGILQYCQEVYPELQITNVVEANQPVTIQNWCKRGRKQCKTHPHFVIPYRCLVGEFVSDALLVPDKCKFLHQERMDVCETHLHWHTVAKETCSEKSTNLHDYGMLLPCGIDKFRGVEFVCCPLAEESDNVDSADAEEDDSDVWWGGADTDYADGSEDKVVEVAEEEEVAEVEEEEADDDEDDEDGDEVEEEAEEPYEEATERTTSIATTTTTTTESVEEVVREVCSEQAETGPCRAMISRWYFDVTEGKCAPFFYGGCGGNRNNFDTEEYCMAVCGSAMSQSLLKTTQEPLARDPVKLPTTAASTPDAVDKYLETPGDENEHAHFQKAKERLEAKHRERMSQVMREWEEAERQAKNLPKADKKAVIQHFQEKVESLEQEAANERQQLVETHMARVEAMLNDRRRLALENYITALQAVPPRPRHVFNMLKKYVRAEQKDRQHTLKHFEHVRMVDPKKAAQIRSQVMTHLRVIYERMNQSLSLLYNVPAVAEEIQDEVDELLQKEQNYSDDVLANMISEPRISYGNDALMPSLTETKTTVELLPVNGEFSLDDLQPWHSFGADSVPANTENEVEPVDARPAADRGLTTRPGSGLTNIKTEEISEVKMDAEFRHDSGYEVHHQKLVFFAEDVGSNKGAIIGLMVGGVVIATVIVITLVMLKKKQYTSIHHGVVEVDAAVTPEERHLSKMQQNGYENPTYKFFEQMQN
UniProt P04233: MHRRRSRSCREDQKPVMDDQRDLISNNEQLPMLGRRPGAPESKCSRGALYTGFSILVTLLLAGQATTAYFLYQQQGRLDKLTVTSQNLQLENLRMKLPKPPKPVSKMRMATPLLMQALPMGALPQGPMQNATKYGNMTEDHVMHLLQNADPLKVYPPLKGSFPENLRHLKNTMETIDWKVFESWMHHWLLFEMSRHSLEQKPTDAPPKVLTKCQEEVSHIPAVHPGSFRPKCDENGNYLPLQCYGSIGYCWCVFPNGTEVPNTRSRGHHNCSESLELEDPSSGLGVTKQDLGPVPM

Target: Amyloid beta precursor protein (UniProt P05067)
Experiment: co-IP; Pierce Co-IP kit; 1,000 ug protein diluted to 500 ul with 5 ug APP antibody, overnight at 4°C; 25 µL Protein A/G beads; elution and protein blotting; source of the protein sample not stated

binding: binds
Substance: CD74 (from UniProt P04233 1-296)
